# Measurements from PubChem BioAssay AID493014 (National Center for Advancing Translational Sciences (NCATS), 2011).
# Values joined by “and” are separate entries in the source; they are usually repeats but may differ in a detail not shown here. Identical values can stand only once. The whole screen tested about 340,000 compounds, of which about 170 (0.05%) were called active. Inconclusive means that the source gave no clear call. Such entries were picked first, then a sample of the others. Calls come from the whole dose curve; as a rule, active = well fitted inhibition curve with a large enough effect in the signal ratio, with a control signal flat (not every such curve was filed as active); inconclusive = small, poorly fitted or top-dose-only effect, or effect the other way, or a change in a side signal; inactive = flat fitted curve, though single readings scatter; the % refers to the signal ratio. Where the call is inconclusive, the potency comes from a doubtful curve fit.
# Assay: qHTS Assay to Find Inhibitors of Chronic Active B-Cell Receptor Signaling;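 for activity change, negative = inhibition: plate controls were basal doxycycline-induced cells for no effect and cells given 10 µM MG132 for full effect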
# Settings: ABC-DLBCL IkBa-CBG/CBR reporter, luminescence ratio (green luciferase fused to IkBa over red control in TMD8 lymphoma cells), 4 h; activity change, negative = inhibition: at 46.1 µM (top of the series) unless noted
# Summary of the method: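 Cell line TMD8 (human ABC DLBCL), stably expressing tet-inducible CBG68-IkBa fusion and CBR; IMDM/0.5% FBS; cpd up to 46 uM; dox induction, 4 h, 37C/5% CO2; dual luminescence; green/red ratio; MG132 control.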
# Potency is the fitted concentration of half-maximal effect.
SMILES,Potency,"activity change, negative = inhibition"
CCCn1c(O)c(C=Nc2ccccc2)sc1=S,"inconclusive: 35.5 µM [falling, single point]",
Cc1ccc2nc(COc3ccc(Cl)cc3)cc(=O)n2c1,,inconclusive: 4.68%
CCOC(=O)C1CCN(c2ncnc3cc(OC)c(OC)cc23)CC1,,inconclusive: -6.85%
COc1ccc(C2=NN(C(=O)c3cccc([N+](=O)[O-])c3)C(c3cccc([N+](=O)[O-])c3)C2)cc1 (stereo not given),,inconclusive: 0.246%
COC(=O)CC(NC(=O)c1ccc(C)cc1)c1ccc2c(c1)OCO2 (stereo not given),,inconclusive: -29.5%
CCOc1ccc(NC(=O)CN(C)C(=O)C2=COCCO2)cc1OCC,,inactive
O=C(c1ccc(F)cc1)c1cnc(Nc2ccccc2)s1,"inconclusive: 4.47 µM [falling, full curve]",
CC(NC(=O)[C@H](C)N1C(=O)N2CCc3c([nH]c4ccccc34)[C@@]2(C)C1=O)c1ccccc1 (stereo not given in full),"inconclusive: 20 µM [rising, single point]",
CCc1ccc(NC2CC(=O)N(CCc3ccc(OC)c(OC)c3)C2=O)cc1 (stereo not given),,inactive
CN(C)C(=O)N1CCCC(C(=O)NCc2ccccc2Cl)C1 (stereo not given),,inconclusive: -2.55%
COc1ccc(C2CC(c3ccccc3)=NN2c2ccc(N)cc2)cc1 (stereo not given),,inconclusive: 3.86%
COc1ccc(N(CC(=O)Nc2cccc3ccccc23)S(C)(=O)=O)c(OC)c1,,inconclusive: -14%
COc1ccc(CN2CCCC(C(=O)c3cccc(C(F)(F)F)c3)C2)cc1O (stereo not given),"inconclusive: 25.1 µM [falling, single point]",
Cc1ccc(COn2c(-c3ccc(Cl)cc3Cl)nc3ncccc32)cc1,,inconclusive: -1.84%
NC(=S)n1[nH]c(-c2ccc([N+](=O)[O-])cc2)c(N=Nc2ccc(O)cc2)c1=O,,inactive
Cc1ccc(OCCOc2cccc(Br)c2)c([N+](=O)[O-])n1,,inconclusive: 3.04%
CC1(C)Oc2ccc(C(=O)NC3CCCC3)cc2N(CC(=O)NC2CCCC2)C1=O,,inconclusive: -6.77%
CCCn1c(SCC(=O)Nc2cccc(NC(C)=O)c2)nnc1C(C)C,,inconclusive: 0.0656%
CC(=O)n1cc([C@H]2C=C(C(=O)N3CCN(Cc4ccccc4)CC3)O[C@@H](OCCCCO)C2)c2ccccc21,,inactive
COc1ccccc1CN(C)C(=O)c1cc(-c2cccs2)nc2ccccc12,,inconclusive: -29.6%
CSCC[C@H](NC(=O)C1CCN(C(=O)[C@H](Cc2ccccc2)NS(=O)(=O)c2ccc(C)cc2)CC1)C(=O)O,,inconclusive: 4.43%
C=CCN=C(NC#N)SCC(=O)c1cccc(OC)c1,,inconclusive: 2.01%
Cc1c(NC(=O)COC(=O)/C=C/c2cccc(Cl)c2)c(=O)n(-c2ccccc2)n1C,,inconclusive: 3.81%
CN(C)CCCNc1c2c(nc3ccccc13)CCC2,,inconclusive: -13.2%
O=C(O)c1cccc(-n2cccc2/C=C2/NC(=O)N(c3ccc(Cl)cc3)C2=O)c1,,inconclusive: -16%
CC1CCCCN1Cc1c(O)ccc2c(=O)c(-c3ccc(Cl)cc3)coc12 (stereo not given),,inconclusive: 2.54%
COc1ccc(CC(NC(C)=O)C(=O)NC2CCN(c3c(Cc4ccccc4)c(C)nc4ncnn34)CC2)c(OC)c1 (stereo not given),,inconclusive: 16.8%

SMILES,Potency,"activity change, negative = inhibition"
COc1ccccc1-n1c(SCC(N)=O)nc2sc3c(c2c1=O)CCC3,,inconclusive: -6.14%
Cc1[nH]c(=O)[nH]c(=O)c1/C=N/NC(=O)[C@@H](N)CC(C)C,,inconclusive: -17.3%
CCCCC[C@@H]1C=C(C(=O)O)[C@H](c2cccc(C)c2)N1S(=O)(=O)c1ccc(C)cc1,,inconclusive: 0.0875%
C=CCNC(=S)NNC(=O)CCC(O)COCCC(C)C (stereo not given),,inactive
Cc1c(C(=O)c2ccccc2)c2ccccn2c1CCc1ccccn1,,inconclusive: 3.8%
Cc1ccc(S(=O)(=O)/N=C(/NC(=S)Nc2cccc(C)c2)c2ccccc2)cc1,,inconclusive: -17.2%
CC(C)OC(=O)c1cccc(C(=O)Oc2ccc(Br)cc2)n1,"inconclusive: 0.562 µM [falling, full curve, poor fit]",
Cc1ccc(SCc2nc(-c3ccncc3)no2)cc1,,inconclusive: 9.85%
COC(=O)c1c(C)[nH]c(C=O)c1-c1ccccc1,"inconclusive: 0.631 µM [rising, partial curve, poor fit]",
COc1cc2c(cc1NC(=O)c1cc(-c3ccncc3)nc3ccccc13)oc1ccccc12,,inactive
CC(C)(C)CN1CCN(CC#Cc2ccccc2)CC1CCO (stereo not given),,inconclusive: -0.223%
Cc1ccnc2nc(C(=O)Nc3nnc(-c4ccccc4)o3)nn12,"inconclusive: 25.1 µM [falling, single point]",
C=CCN1C(=O)/C(=C2/Sc3ccccc3N2CC)SC1=S,,inactive
COc1ccc(S(=O)(=O)N2CCCCCC2)cc1NC(=O)CN1C(=O)NC(C)(c2ccccc2)C1=O (stereo not given),,inactive
Cn1nc(-c2ccccc2)c(N2CCCCC2)cc1=O,,inconclusive: -2.35%
CCc1ccc(-n2c(=O)c3c(C)c(C(=O)N(C)C)sc3n(CC(=O)Nc3cc(Cl)ccc3C)c2=O)cc1,"inconclusive: 3.16 µM [falling, partial curve, poor fit]",
COc1cccc(CNC(=O)c2cccnc2Sc2ccc(Cl)cc2)c1,,inconclusive: 9.61%
CCN1CCN(CCNC(=O)c2ccc(/C=C3/Sc4ccccc4N(Cc4cccc(C)c4)C3=O)cc2)CC1,,inconclusive: -9.29%
CCOc1cc(/C=C2\CN(C)C/C(=C\c3ccc(O)c(OCC)c3)C2=O)ccc1O,"inconclusive: 2.82 µM [cytotoxic, partial curve]",
Cc1ccc(Nc2nc(-c3sc(N)nc3C)cs2)cc1,"inconclusive: 35.5 µM [falling, partial curve, poor fit]",
O=C(O)CCSCCCN1C(=O)c2cccc3cccc(c23)C1=O,"inconclusive: 22.4 µM [falling, partial curve]",
CC(C)N(C)S(=O)(=O)c1ccc(NC(=O)C2=COCCO2)cc1,,inconclusive: 2.01%
O=C(CSc1nnc(C2CCCCC2)o1)N1CCCCC1,,inconclusive: 5.47%
COc1ccc(CN2CCN(Cc3c[nH]c4ccccc34)CC2CCO)cc1C (stereo not given),,inconclusive: -5.16%
CC1Sc2ccc(S(=O)(=O)N3CCC(C(=O)Nc4cccc(Cl)c4)CC3)cc2NC1=O (stereo not given),,inconclusive: 6.01%
O=C(CCN1C(=O)S/C(=C\c2ccc(Cl)cc2)C1=O)Nc1ccc(C(=O)O)cc1,,inconclusive: 1.13%
O=C(Cc1ccccc1)Nc1nc2ccccc2s1,,inconclusive: 11.7%

SMILES,Potency,"activity change, negative = inhibition"
CSc1ccccc1NC(=O)CN(C)CC(=O)Nc1ccccc1N1CCOCC1,,inconclusive: -5.61%
NC(=O)CC(NC(=O)Cc1cccc2ccccc12)c1ccc(NCc2cc(F)ccc2F)c([N+](=O)[O-])c1 (stereo not given),,inconclusive: -0.445%
CCOC(=O)c1sc(=NC(=O)c2ccc(OC(C)C)cc2)n(C)c1C,,inconclusive: -26.7%
O=C(/C=C/c1ccc(Cl)cc1Cl)NCCSc1ccccc1,,inconclusive: 6.82%
CCCCOCCCNc1ncnc2c1[nH]c1ccccc12,,inactive
CN(C)c1ccc(-c2cc(O)c3ncccc3c2)cc1,,inconclusive: -0.882% and inconclusive: 27.5%
OCc1cn(-c2ccccc2)nc1-c1ccc2c(c1)OCCO2,,inconclusive: -114%
COCc1c(Br)c(C)nc(OCC(=O)N/N=C/c2ccc(C)o2)c1C#N,,inactive
COc1ccc(NC(=O)Cc2nnc(SCC(=O)NC3CCCCC3C)n2C)cc1 (stereo not given),,inactive
Cc1ccc(C)c(NC(=S)NNC(=O)c2sccc2C)c1,"inconclusive: 35.5 µM [falling, partial curve, poor fit]",
COc1ccc(C)cc1Nc1c2c(nc3ccccc13)CCC2,,inconclusive: -3.6%
Cc1ccc(NC(=S)NCc2ccc(Cl)cc2)c(C)c1,,inconclusive: -24.9%
CC(=O)Nc1ccc(S(=O)(=O)NCC(=O)NC(C)c2ccc(S(N)(=O)=O)cc2)cc1 (stereo not given),,inconclusive: 11%
Nc1[nH]nc2nc(N3CCCC3)nc(-c3ccccc3)c12,,inconclusive: -0.244%
Nc1c2nc(-c3ccccc3Cl)[nH]c(=O)c2nc(=O)n1-c1ccccc1,,inconclusive: -4.92%
CC(=O)c1ccc(C(=O)Nc2nnc(-c3ccc(Cl)cc3)o2)cc1,"inconclusive: 12.6 µM [falling, single point]",
CN(C)c1ccc(NC(=S)c2ccc3ccccc3n2)cc1,,inconclusive: -17.7%
CSc1ccccc1NC(=O)Nc1cccc(Cl)c1,"inconclusive: 0.92 µM [falling, partial curve]",
c1ccc(CCCCN2CCN=C2Nc2ccccc2)cc1,,inactive
CC(C)c1ccc(NC(=O)c2cnn(-c3ccccc3)c2NC(=O)c2ccco2)cc1,,inconclusive: -5.61%
S=C(N/N=C1\C2CN3CCN(C2)CC1(c1ccccc1)C3)Nc1ccccc1,,inconclusive: 3.04%
COc1ccc(O)c(/C=N/c2sc(C)c(C)c2C#N)c1,,inconclusive: -8.05%
Cc1ccc(C(=O)c2coc3ccc(O)c(CN(C)C)c23)cc1,,inconclusive: -7.15%
Cc1cc(/C=C2\SC(=S)N(Cc3ccco3)C2=O)c(C)n1-c1ccccc1,,inactive
CCN(CC)C(=S)NC(=O)c1ccc(F)cc1,"inconclusive: 20 µM [falling, partial curve, poor fit]",
CC(C)c1cc(-c2cc(-c3ccccc3)on2)nc(NC2CCCC2)n1,,inconclusive: 11.6%
